# Hit rate of the full screen: of about 300,000 compounds, about 3,700 (1.2%) were called active. Inconclusive results, whose numbers are uncertain, are shown with a selection of clear calls. The call rests on the fitted dose curve; tested in HEK293 cells. Potencies of inconclusive entries are doubtful fits and often do not repeat.
# Assay: qHTS for Inhibitors of binding or entry into cells for Lassa Virus; further: nearly all actives have a fitted effect of over 50% in size
# Conditions: Lassa virus pseudotype entry inhibition, cell reporter; activity change, negative = inhibition: at 37.9 µM (top of the series) unless noted
# On the % scale 0 is the no-effect control and ±100 the full control effect; potency means the concentration at half of the fitted maximal effect.
SMILES,Potency,"activity change, negative = inhibition"
O=C(c1ccc(C(F)(F)F)cc1)N1CCN(S(=O)(=O)c2ccc3c(c2)OCCCO3)CC1,"inconclusive: 22.4 µM [inhibitor, partial curve, poor fit]",–
CCCOc1ccc(/C(O)=C2/C(=O)C(=O)N(CCCn3ccnc3)C2c2cccnc2)cc1 (stereo not given),–,inactive: 0.352% [at 46.1 µM]
COc1ccc(CCNC(=O)CN2CCC(C(N)=O)CC2)cc1,"inconclusive: 15.8 µM [inhibitor, partial curve, poor fit]",–
c1ccc(-c2nnc(-c3c[nH]c4ccccc34)nc2-c2ccccc2)cc1,"inconclusive: 35.5 µM [inhibitor, single point]",–
Cc1ccc(NNC(=O)c2cc(C(C)(C)C)nn2Cc2ccccc2)cc1,"inconclusive: 4.47 µM [inhibitor, single point]",–
CCOC(=O)c1ccc(Nc2nc(C)cc(C)n2)cc1,"inconclusive: 7.94 µM [activator, partial curve, poor fit]",–
O=c1c2ccccc2nc2n1C(CSCc1cccc(C(F)(F)F)c1)CS2 (stereo not given),"inconclusive: 17.8 µM [inhibitor, partial curve, poor fit]",–
CC(C)C(=O)NC(c1ccccc1Cl)c1c(O)ccc2ccccc12 (stereo not given),"inconclusive: 0.73 µM [activator, partial curve, poor fit]",–
COc1cc(NC2c3ncccc3C(=O)N2Cc2ccco2)cc(OC)c1 (stereo not given),–,inactive: -31.7%
COc1ccccc1/C=C/CN1CCC(Oc2ccc(C(=O)N3CCCC3)cc2)CC1,–,inactive: 8.2%
Cc1ccc(CN(C)C(=O)c2ccc(S(=O)(=O)N(C)c3ccccc3)cc2)o1,"inconclusive: 22.4 µM [inhibitor, partial curve, poor fit]",–
COc1cccc(/C=N/NC(=O)COc2cccc3cccnc23)c1O,"inconclusive: 8.91 µM [inhibitor, partial curve, poor fit]",–
Cc1c(C(=O)NCCN(C)C)oc2c1-c1nn(Cc3ccccc3Cl)cc1CC2,"inconclusive: 7.08 µM [activator, partial curve, poor fit]",–
CCCCOP(=O)(OCCCC)C(O)c1ccc(F)cc1 (stereo not given),"inconclusive: 6.31 µM [inhibitor, single point]",–
Cc1ccc(C(=O)/C=C2/NC(=O)CS2)cc1,–,inactive: 10.1%
COc1cc(/C=N/n2c(C3CCCCC3)n[nH]c2=S)cc(OC)c1O,–,inactive: 18% [at 46.1 µM]
O=C(CNc1cccc2ccccc12)N/N=C/c1ccc([N+](=O)[O-])o1,"inconclusive: 20.6 µM [inhibitor, partial curve]",–
CC(C)COc1ccc(C(=O)OCC(=O)N(C)CC(=O)Nc2ccc(F)cc2)cc1,"inconclusive: 6.31 µM [inhibitor, single point]",–
Cc1cccc(N(Cc2ccccc2)C(=O)c2cccc(S(=O)(=O)N3CC(C)OC(C)C3)c2)c1 (stereo not given),"inconclusive: 35.5 µM [inhibitor, single point]",–
Cc1ccc(C(C)C)c(OCCCN(C)Cc2ccccc2)c1,"inconclusive: 8.2 µM [inhibitor, partial curve]",–
CCN(CC)S(=O)(=O)c1ccc(C(=O)Nc2ccc3c(c2)OCO3)cc1,"inconclusive: 20 µM [inhibitor, single point]",–
COc1ccc(NC(C)=O)cc1S(=O)(=O)Nc1ccc(OCc2ccccc2)cc1,"inconclusive: 20 µM [inhibitor, single point]",–

SMILES,Potency,"activity change, negative = inhibition"
Cc1cccc(C)c1OCCNC(=O)CCC(=O)c1ccccc1,"inconclusive: 1.26 µM [inhibitor, partial curve, poor fit]",–
COc1ccc(CNC(=O)Cc2c(C)c3c(cc(C)c4c(C)coc43)oc2=O)cc1,"inconclusive: 7.08 µM [activator, partial curve]",–
CNc1nnc(-c2cccc(N(C)C)c2)s1,"inconclusive: 0.794 µM [activator, full curve, poor fit]",–
Cc1sc(NC(=O)CN(Cc2ccccc2)C(=O)C(C)C)c(C(N)=O)c1C,"inconclusive: 6.51 µM [inhibitor, partial curve, poor fit]",–
CCOc1ccc(NC(=O)C(=O)N/N=C\c2ccc(CNS(=O)(=O)c3ccccc3)o2)cc1,"inconclusive: 32.6 µM [activator, partial curve, poor fit]",–
O=c1cc(CN2CCCCC2)nc(C2CC2)[nH]1,"inconclusive: 12.6 µM [activator, single point]",–
COc1ccc(C(CNC(=O)c2ccc(OCC3CCCO3)cc2)N2CCOCC2)cc1 (stereo not given),"inconclusive: 11.2 µM [inhibitor, partial curve, poor fit]",–
COc1ccc(CNC(=O)C(c2ccncc2)N(C(=O)Cc2cccs2)c2ccc(C)cc2)cc1 (stereo not given),"inconclusive: 20.6 µM [inhibitor, partial curve, poor fit]",–
COCCNc1cc(C)nc2ccccc12,"inconclusive: 5.62 µM [inhibitor, single point]",–
O=C(Nc1ccc(O)cc1)c1c(O)c2c([nH]c1=O)CCCC2,"inconclusive: 3.55 µM [inhibitor, single point]",–
COCCCNC(=O)/C(C#N)=C/c1cccc(NC(=O)c2ccccc2Cl)c1,"inconclusive: 7.94 µM [inhibitor, partial curve, poor fit]",–
CC1=CC=CC2=NC(=O)CC(C)(C(=O)N(CC(=O)NC3CCCC3)Cc3ccc(Cl)cc3)N12 (stereo not given),–,inactive: 1.51%
COc1ccc(-c2nc(CCNC(=O)c3cc(OC)c(OC)c(OC)c3)cs2)cc1,–,inactive: 11.5% [at 46.1 µM]
FC(F)(F)c1cc(NC(=S)NC(c2ccccc2)c2ccccc2)cc(C(F)(F)F)c1,"inconclusive: 2.66 µM [inhibitor, single point]",–
O=C(Nc1cc2c(=O)n(-c3ccc(Oc4ccccc4)cc3)ccc2oc1=O)c1ccccc1,–,inactive: -24%
Cc1ccc2nc(SCC(=O)Nc3cc(C(F)(F)F)ccc3N3CCOCC3)[nH]c2c1,"inconclusive: 1 µM [inhibitor, full curve, poor fit]",–
CCN(CC)CCn1c(=N)n(CC(O)COc2ccccc2C)c2ccccc21 (stereo not given),"inconclusive: 17.8 µM [inhibitor, single point]",–
CCSC1=C(C#N)C(c2cccs2)C(C(=O)OC)=C(C)N1 (stereo not given),"inconclusive: 11.2 µM [inhibitor, partial curve, poor fit]",–
CC(C)CCn1c(SCc2ccc(F)cc2Cl)nc2ccsc2c1=O,"inconclusive: 1.12 µM [activator, partial curve, poor fit]",–
Cc1ccc(C)c(NS(=O)(=O)c2ccc3c(c2)Cc2cc(S(=O)(=O)Nc4cc(C)ccc4C)ccc2-3)c1,–,inactive: -9.58%
CC1(C)CC(C(=O)Nc2ccccc2)C(=O)O1 (stereo not given),–,inactive: 2.6%
O=C(N/N=C/c1ccccc1O)c1ccc2c(c1)OCO2,"inconclusive: 6.31 µM [inhibitor, partial curve, poor fit]",–

# Of the compounds above, 2 have an aryl thioether with sulfur outside any ring:
SMILES,Potency,"activity change, negative = inhibition"
Cc1ccc2nc(SCC(=O)Nc3cc(C(F)(F)F)ccc3N3CCOCC3)[nH]c2c1,"inconclusive: 1 µM [inhibitor, full curve, poor fit]",–
CC(C)CCn1c(SCc2ccc(F)cc2Cl)nc2ccsc2c1=O,"inconclusive: 1.12 µM [activator, partial curve, poor fit]",–

# One compound at a time (already shown). Values in the order: Potency | activity change, negative = inhibition
# `COc1ccc(CNC(=O)Cc2c(C)c3c(cc(C)c4c(C)coc43)oc2=O)cc1` is listed as inconclusive: 7.08 µM [activator, partial curve] | –
# `CC(C)CCn1c(SCc2ccc(F)cc2Cl)nc2ccsc2c1=O` is listed as inconclusive: 1.12 µM [activator, partial curve, poor fit] | –

# Later entries.

SMILES,Potency,"activity change, negative = inhibition"
CC(C)c1ccc(C2c3c(-c4ccccc4O)n[nH]c3C(=O)N2CCc2ccccc2)cc1 (stereo not given),"inconclusive: 1.12 µM [inhibitor, full curve, poor fit]",–
CC(C)n1c(SCc2ccc(Cl)cc2)nc2c1c(=O)[nH]c(=O)n2C,"inconclusive: 1.12 µM [inhibitor, partial curve, poor fit]",–
COc1ccc(C(OCC(O)CN(C)C2CCCCC2)c2ccc(OC)cc2)cc1 (stereo not given),"inconclusive: 35.5 µM [inhibitor, single point]",–
ClCc1nnc(-c2ccccc2)o1,–,inactive: 0.182%
CCc1nnc(N2C(=N)SCC2=O)s1,–,inactive: 0.819% [at 46.1 µM]
Cc1ccc(C(=O)NC(C)c2ccccc2)cc1Br (stereo not given),active: 11.6 µM,–
O=C(NCCc1ccccc1)c1cccc(NC(=O)C2CC2)c1,"inconclusive: 2.23 µM [activator, full curve]",–
COc1ccc(C(C(=O)NC2CCCC2)N(C(=O)c2ccoc2C)c2cc(C)cc(C)c2)cc1 (stereo not given),"inconclusive: 2.59 µM [inhibitor, full curve]",–
O=C(c1cccc(C(F)(F)F)c1)N1CCC(O)(CS(=O)(=O)Cc2ccc(Cl)cc2)CC1,–,inactive: -4.99%
O=c1c(F)cn(C2CCCO2)c(=O)n1Cc1c(F)cccc1Cl (stereo not given),"inconclusive: 0.259 µM [activator, single point]",–
O=C(CCl)N=c1sccn1Cc1ccc(Cl)cc1Cl,"inconclusive: 35.5 µM [inhibitor, single point]",–
CCOc1cccc2cc(C(=O)NCc3ccc(C)cc3)c(=N)oc12,"inconclusive: 5.01 µM [inhibitor, full curve, poor fit]",–
O=C(NCc1nc(-c2ccccc2)no1)c1cccs1,–,inactive: 0.568%
COc1cccc(NC(=O)Cn2c(=O)n(CCCC(=O)NCc3ccc4c(c3)OCO4)c(=O)c3ccccc32)c1,"inconclusive: 5.01 µM [activator, partial curve, poor fit]",–
Cc1nn(Cc2c(F)c(F)c(F)c(F)c2F)c(C)c1NC(=O)c1cccc(COc2ccccc2Cl)c1,"inconclusive: 29.1 µM [inhibitor, single point]",–
CCC1=NN2C(=N)/C(=C\c3cccn3-c3ccc(C)c(C)c3)C(=O)N=C2S1,–,inactive: 6.86% [at 46.1 µM]
Cc1ccc(O)c(C2=Nc3ccccc3N=C(c3ccco3)C2)c1,–,inactive: 6.1%
CC1CCc2c(sc(NC(=O)c3cccn3C)c2C(N)=O)C1 (stereo not given),"inconclusive: 3.55 µM [activator, partial curve, poor fit]",–
COc1ccc(NS(=O)(=O)c2ccc(OC)c(NC(=O)CCC3CCCCC3)c2)cc1,"inconclusive: 6.31 µM [inhibitor, partial curve, poor fit]",–
Nc1c(-c2ccc(Cl)cc2)nnn1-c1ccccc1,–,inactive: 25%
Cc1cc(-c2nnc(SCC(=O)Nc3ccccc3Cl)n2C)no1,–,inactive: -19.1%

# Source: PubChem BioAssay AID540256 (National Center for Advancing Translational Sciences (NCATS), 2011)
